Reference: PubChem BioAssay AID1224829 (NIAID, 2016)
The whole screen tested about 3,800 reagents; this is a part drawn at random. 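Calls cover raised and lowered translocation; gene median uses one vendor's three siRNAs; qiagen siRNAs acted more weakly than ambion siRNAs.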 A number with no mark means an inactive call. The numbers tell different reagents against one gene apart. No sequences are given here.

Assay: 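Secondary check of hits that alter LPS-induced p65 translocation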 (follow-up of hits)
System: mouse RAW264.7 G9 macrophage reporter cells
Reagents: single siRNA against mouse genes, 100 nM
Duration: 2 days of siRNA knock-down, then 40 min of LPS before fixing
Challenge: LPS (Salmonella minnesota R595) at 10 ng/ml
Measured: 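Imaging of GFP-p65 after 40 min of LPS; nuclear over perinuclear ring intensity ratio, scaled to plate median and non-targeting control wells, given as z-score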
Direction: p65 translocation z-score and gene median z-score, per vendor: higher = more nuclear NF-kappaB p65 after LPS
Call rule: 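Active means the replicate-mean z-score lies beyond plus or minus 2, in either direction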
Meaning of the calls: active = changed p65 translocation (either direction); inactive = no clear change

The opening 6 records, to show the layout:
Target gene,siRNA no.,siRNA vendor or control pool,"p65 translocation z-score, replicate mean","p65 translocation z-score, replicate 1","p65 translocation z-score, replicate 2","gene median z-score, per vendor"
Poglut3,1,ambion single siRNA,-1.82,-3.4,-0.25,-0.869
Poglut3,2,ambion single siRNA,-0.299,-1.49,0.891,-0.869
Poglut3,3,ambion single siRNA,,,,-0.869
Poglut3,4,qiagen single siRNA,1.06,-0.0231,2.14,-0.269
Poglut3,5,qiagen single siRNA,-1.46,-1.66,-1.26,-0.269
Poglut3,6,qiagen single siRNA,0.246,-0.515,1.01,-0.269

The listing, from the first entry:
Target gene,siRNA no.,siRNA vendor or control pool,"p65 translocation z-score, replicate mean","p65 translocation z-score, replicate 1","p65 translocation z-score, replicate 2","gene median z-score, per vendor"
Poglut3,1,ambion single siRNA,-1.82,-3.4,-0.25,-0.869
Poglut3,2,ambion single siRNA,-0.299,-1.49,0.891,-0.869
Poglut3,3,ambion single siRNA,,,,-0.869
Poglut3,4,qiagen single siRNA,1.06,-0.0231,2.14,-0.269
Poglut3,5,qiagen single siRNA,-1.46,-1.66,-1.26,-0.269
Poglut3,6,qiagen single siRNA,0.246,-0.515,1.01,-0.269
Psmb5,1,ambion single siRNA,3.5 (active),4.82,2.17,-0.642
Psmb5,2,ambion single siRNA,-0.642,-0.415,-0.87,-0.642
Psmb5,3,ambion single siRNA,-3.01 (active),-1.47,-4.55,-0.642
Psmb5,4,qiagen single siRNA,1.92,0.071,3.77,-0.836
Psmb5,5,qiagen single siRNA,-0.836,-1.44,-0.234,-0.836
Psmb5,6,qiagen single siRNA,-2.24 (active),-2.79,-1.69,-0.836
Cyp2c65,1,ambion single siRNA,-0.795,1.14,-2.73,-1.88
Cyp2c65,2,ambion single siRNA,-0.353,0.324,-1.03,-1.88
Cyp2c65,3,ambion single siRNA,-5.01 (active),-4.6,-5.42,-1.88
Cyp2c65,4,qiagen single siRNA,0.622,-0.392,1.64,1.64
Cyp2c65,5,qiagen single siRNA,3.31 (active),2.3,4.32,1.64
Cyp2c65,6,qiagen single siRNA,0.707,0.707,,1.64
Gm15850,1,ambion single siRNA,4.55 (active),5.72,3.37,1.24
Gm15850,2,ambion single siRNA,1.24,0.987,1.49,1.24
Gm15850,3,ambion single siRNA,-4.92 (active),-5.25,-4.59,1.24
Dtx3,1,ambion single siRNA,-0.606,-0.0217,-1.19,-1.19
Dtx3,2,ambion single siRNA,-0.65,-0.65,,-1.19
Dtx3,3,ambion single siRNA,-2.83 (active),-3.25,-2.41,-1.19
Dtx3,4,qiagen single siRNA,-0.0222,-0.535,0.491,-0.48
Dtx3,5,qiagen single siRNA,-0.425,-0.425,,-0.48
Dtx3,6,qiagen single siRNA,-3.12 (active),-3.12,,-0.48
Ucp2,1,ambion single siRNA,2.05 (active),3.3,0.81,-0.136
Ucp2,2,ambion single siRNA,-2.02 (active),-1.92,-2.13,-0.136
Ucp2,3,ambion single siRNA,1.13,3.34,-1.08,-0.136
Ucp2,4,qiagen single siRNA,2.19 (active),2.45,1.94,-0.653
Ucp2,5,qiagen single siRNA,-0.95,0.161,-2.06,-0.653
Ucp2,6,qiagen single siRNA,-1.55,-1.63,-1.47,-0.653
Gata3,1,ambion single siRNA,,,,-1.91
Gata3,2,ambion single siRNA,-3.48 (active),-2.39,-4.57,-1.91
Gata3,3,ambion single siRNA,-1.01,-0.594,-1.42,-1.91
Gata3,4,qiagen single siRNA,0.624,-0.22,1.47,-1.51
Gata3,5,qiagen single siRNA,-1.51,-1.51,,-1.51
Gata3,6,qiagen single siRNA,-2.79 (active),-2.98,-2.6,-1.51
Dffa,1,ambion single siRNA,1.68,2.8,0.559,-1.62
Dffa,2,ambion single siRNA,-4.17 (active),-3.41,-4.93,-1.62
Dffa,3,ambion single siRNA,-1.62,-1.8,-1.43,-1.62
Dffa,4,qiagen single siRNA,-2.42 (active),-4.53,-0.306,-0.576
Dffa,5,qiagen single siRNA,1.23,-0.33,2.79,-0.576
Dffa,6,qiagen single siRNA,-1.75,-0.821,-2.67,-0.576
Ppm1l,1,ambion single siRNA,-2.77 (active),-3.01,-2.52,-2.59
Ppm1l,2,ambion single siRNA,-1.07,-0.604,-1.53,-2.59
Ppm1l,3,ambion single siRNA,-4.02 (active),-2.67,-5.38,-2.59
Ppm1l,4,qiagen single siRNA,0.00312,-1.32,1.32,0.609
Ppm1l,5,qiagen single siRNA,1.43,0.326,2.53,0.609
Ppm1l,6,qiagen single siRNA,0.00712,0.891,-0.877,0.609
